Experimental data from PubChem BioAssay AID743255 (National Center for Advancing Translational Sciences (NCATS), 2014).
About 910 (0.23%) of roughly 390,000 compounds were called active. This list was built around the results that the source calls inconclusive (neither active nor inactive); the mix of calls is not that of the screen. Calls follow the shape of the dose curve; as a rule, active = well fitted inhibition curve with a large enough effect; inconclusive = small, poorly fitted or top-dose-only effect; inactive = no such curve, though single readings can be large or run the other way. A potency beside an inconclusive call is a rough fit, not a confirmed value.

The chains behind the UniProt entries cited, without tags or fusion partners. Where a name states a change or a piece, a line headed by the entry shows the natural chain unless it says otherwise.
UniProt O94782: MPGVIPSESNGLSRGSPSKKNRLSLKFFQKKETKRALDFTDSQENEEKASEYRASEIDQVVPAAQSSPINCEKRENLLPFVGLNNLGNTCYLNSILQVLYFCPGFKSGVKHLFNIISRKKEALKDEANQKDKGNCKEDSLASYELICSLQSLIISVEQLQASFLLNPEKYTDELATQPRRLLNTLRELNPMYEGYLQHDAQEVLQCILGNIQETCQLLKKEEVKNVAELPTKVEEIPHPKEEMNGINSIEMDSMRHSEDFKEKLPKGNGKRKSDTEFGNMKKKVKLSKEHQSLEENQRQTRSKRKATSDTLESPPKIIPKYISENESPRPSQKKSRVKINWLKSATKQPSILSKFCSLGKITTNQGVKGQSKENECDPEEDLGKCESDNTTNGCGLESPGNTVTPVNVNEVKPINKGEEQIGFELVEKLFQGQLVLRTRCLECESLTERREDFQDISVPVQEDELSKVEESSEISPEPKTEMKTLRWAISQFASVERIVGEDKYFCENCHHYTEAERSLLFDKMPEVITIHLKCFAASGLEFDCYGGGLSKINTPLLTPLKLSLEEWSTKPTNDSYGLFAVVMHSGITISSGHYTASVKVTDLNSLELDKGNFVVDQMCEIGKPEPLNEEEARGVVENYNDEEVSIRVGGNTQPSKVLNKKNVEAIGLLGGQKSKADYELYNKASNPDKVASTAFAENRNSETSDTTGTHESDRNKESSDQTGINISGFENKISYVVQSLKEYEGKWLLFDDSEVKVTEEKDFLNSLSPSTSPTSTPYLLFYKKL

Biological target: Ubiquitin carboxyl-terminal hydrolase 1 (Homo sapiens) (UniProt O94782)
Test: Inhibitors of USP1/UAF1: Primary Screen; also: nearly all actives have a fitted effect of over 60% in size
Settings: recombinant USP1/UAF1, Ub-Rhodamine cleavage fluorescence; activity change, negative = inhibition: at 57.1 µM (top of the series)
In short: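 In this screen, compounds sit with the deubiquitinase complex (1nM) for 15 min at room temperature before Ub-Rho is added at 150nM final. Fluorescence rise is then followed for 6 reads every 60 seconds.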
% is scaled to controls: 0 for no effect and ±100 for the full control effect; potency is read from the fitted curve at half-maximal effect.

| Compound | Potency | activity change, negative = inhibition |
| --- | --- | --- |
| CCN1/C(=C\C=C2\C(=O)N(C)C(=S)N2C)Sc2ccccc21 | inactive |  |
| CCCCC(=O)NNC(=S)NC(=O)c1ccc([N+](=O)[O-])cc1 | inconclusive: 44.7 µM [inhibitor, partial curve] |  |
| Cc1cccc(N2CCN(C(=O)c3cccc(N4CCCC4=O)c3)C(C)C2)c1 (centres undefined) | inactive |  |
| O=C(CN1c2ccccc2Sc2ccccc21)NNC(=S)Nc1ccc(Cl)cc1Cl | inactive |  |
| N#Cc1c(N)n(-c2cccc(C(=O)O)c2)c2nc3ccccc3nc12 | inconclusive: 17.8 µM [inhibitor, partial curve] |  |
| CCOc1ccc(-c2ncnn2-c2sc3c(c2C#N)CCCCC3)cc1 | inconclusive: 2.24 µM [inhibitor, full curve, poor fit] |  |
| Cc1ccc(S(=O)(=O)CCC(=O)OCC(=O)Nc2sccc2C#N)cc1 | inactive |  |
| O=C(COC(=O)c1cc(NS(=O)(=O)c2cccs2)ccc1O)Nc1ccc(F)c(F)c1F | inactive |  |
| Cc1ccc(NC(=S)NNc2ccc([N+](=O)[O-])cc2S(=O)(=O)Nc2ccccc2C(=O)O)cc1C | inactive |  |
| COc1ccc(-c2cc(=O)c3cc(OCC(=O)OC(C)C)ccc3o2)cc1 | inactive |  |
| C/C(=N/NC(N)=S)c1cc2ccc(O)cc2oc1=O | inconclusive: 44.7 µM [inhibitor, partial curve] |  |
| Cc1cc(N2CCN(C)CC2)n2nc(-c3ccc(Cl)cc3)nc2n1 | inconclusive: 35.5 µM [inhibitor, partial curve] |  |
| O=C(COC(=O)C(Cc1c[nH]c2ccccc12)NC(=O)c1ccc(Cl)cc1)c1ccc(Cl)cc1 (centres undefined) | inconclusive: 7.08 µM [inhibitor, partial curve, poor fit] |  |
| CCN1CCN(C(c2ccc(SC)cc2)c2c(O)cc(C)n(Cc3ccco3)c2=O)CC1 (centres undefined) | inconclusive: 50.1 µM [inhibitor, partial curve] |  |
| COc1ccccc1NC(=O)C1CCN(S(=O)(=O)c2ccc3[nH]c4c(c3c2)CCCCC4)CC1 | inconclusive: 1.41 µM [inhibitor, full curve, poor fit] |  |
| Cc1ccc(C(C[N+](=O)[O-])c2c(-c3ccccc3O)[nH][nH]c2=O)cc1 (centres undefined) | inconclusive: 44.7 µM [inhibitor, partial curve] |  |
| CCOC(=O)c1[nH]cnc1C(=O)Nc1ccc(C)cc1 | inactive |  |
| COCCCN1C(=O)c2[nH]nc(-c3ccccc3O)c2C1c1ccc(OCc2ccccc2)cc1 (centres undefined) | inconclusive: 15.8 µM [inhibitor, partial curve, poor fit] |  |
| Cc1ccc(NC(=O)Cn2c(=O)n(CCCCC(=O)NCCc3ccc(Cl)cc3)c(=O)c3ccccc32)cc1 | inactive |  |
| COc1cc(C2c3cc4c(cc3CC3COC(=O)N32)OCO4)cc(OC)c1OC (centres undefined) | inactive |  |
| O=C1NC(c2ccco2)Nc2sc3c(c21)CCN(Cc1ccccc1)C3 (centres undefined) | inconclusive: 35.5 µM [inhibitor, partial curve] |  |
| COc1ccc(OC)c(C2C3CN(C(C)C)CC=C3C(C#N)=C(N)C2(C#N)C#N)c1 (centres undefined) |  | inconclusive: -30.2% [inhibitor] |
| COc1cc2cc(C)c(SCC(=O)N3CCOCC3)nc2cc1OC | inconclusive: 17.8 µM [inhibitor, partial curve, poor fit] |  |

| Compound | Potency | activity change, negative = inhibition |
| --- | --- | --- |
| CC(C(=O)N1CCCC1)N(c1ccc(Cl)cc1)S(C)(=O)=O (centres undefined) | inactive |  |
| Cc1ccc2cc(C3C(C#N)=C(N)Oc4c3ccc3cccnc43)c(=O)[nH]c2c1 (centres undefined) | inactive |  |
| CCOC1(OCC)N=C(N)C2(C#N)C(c3cccc(C)c3)C12C#N (centres undefined) | inactive |  |
| CCOc1cc(CNc2ccc(N3CCCC3)cc2)cc(Cl)c1OC | active: 28.2 µM |  |
| CCOc1cc(/C=C2/C(=O)NN(c3cccc(Cl)c3)C2=O)ccc1O | inconclusive: 35.5 µM [inhibitor, partial curve] |  |
| NC(=O)c1ccsc1NC(=O)CN1C(=O)NC2(CCCCC2)C1=O | inactive |  |
| CC1Cc2ccccc2N1S(=O)(=O)c1cccc(C(=O)N2Cc3ccccc3CC2C(N)=O)c1 (centres undefined) | inconclusive: 39.8 µM [inhibitor, partial curve, poor fit] |  |
| CC(C)N(C(=O)CSc1nnc(Cc2csc(Nc3ccccc3)n2)o1)C(C)C | inconclusive: 0.562 µM [inhibitor, full curve, poor fit] |  |
| N#Cc1c(-n2ncnc2-c2cccc(Br)c2)sc2c1CCCCC2 | inconclusive: 0.355 µM [inhibitor, full curve, poor fit] |  |
| COc1ccc(NC(=O)CSc2nnc(NC(=O)c3ccccc3C(=O)O)s2)cc1 | inactive |  |
| CCOc1cc(/C=C2\N=C(C)OC2=O)cc(Br)c1OCC(=O)OC | inactive |  |
| CCN(c1nc(N)c(C(=O)N=C(N)N)nc1Cl)C(C)C | inconclusive: 178 µM [inhibitor, partial curve, poor fit] |  |
| CCc1cccc(NC(=S)Nc2cccc3ccccc23)c1 | inconclusive: 44.7 µM [inhibitor, partial curve] |  |
| Cc1cc(C)n2nc(/C(C#N)=C/c3ccccn3)c(C#N)c2n1 | inactive |  |
| CCC(=O)C1=C(c2ccc(OC)c(OC)c2)N(C(=O)CC)n2c(CC)nnc2S1 | inconclusive: 15.8 µM [inhibitor, partial curve] |  |
| O=C(CS(=O)c1ccc(C(F)(F)F)cc1[N+](=O)[O-])Oc1ccc(Cl)cc1 (centres undefined) | inconclusive: 31.6 µM [inhibitor, partial curve] |  |
| CCCCSCCCNC(=O)c1cn(C)c2ccc(S(=O)(=O)N3CCCCCC3)cc2c1=O | inconclusive: 63.1 µM [inhibitor, partial curve, poor fit] |  |
| NC(=O)CC(NC(=O)c1ccccc1)c1ccc(N2CCCCCC2)c([N+](=O)[O-])c1 (centres undefined) | inconclusive: 44.7 µM [inhibitor, partial curve, poor fit] |  |
| O=C1c2ccccc2C(=O)N1CC1=NCCc2ccccc21 | inconclusive: 35.5 µM [inhibitor, partial curve] |  |
| CCn1c(=O)c2cc(C(=O)NCC(OC)OC)sc2c2ccccc21 | inconclusive: 31.6 µM [inhibitor, partial curve] |  |
| CC(C)Oc1cccc(C2CC(=O)Nc3cc4c(cc32)OCO4)c1 (centres undefined) | inactive |  |
| COc1cc(/C=C2\SC(=S)N(NC(=O)c3cccnc3)C2=O)ccc1O | inconclusive: 44.7 µM [inhibitor, partial curve] |  |
| CC(NS(C)(=O)=O)C(c1cccs1)N1CCN(c2ccccc2)CC1 (centres undefined) | inconclusive: 35.5 µM [inhibitor, partial curve, poor fit] |  |

In another format: 5 of the compounds above
Compound | Potency | activity change, negative = inhibition
Cc1ccc2cc(C3C(C#N)=C(N)Oc4c3ccc3cccnc43)c(=O)[nH]c2c1 (centres undefined) | inactive | 
NC(=O)c1ccsc1NC(=O)CN1C(=O)NC2(CCCCC2)C1=O | inactive | 
CCN(c1nc(N)c(C(=O)N=C(N)N)nc1Cl)C(C)C | inconclusive: 178 µM [inhibitor, partial curve, poor fit] | 
CCC(=O)C1=C(c2ccc(OC)c(OC)c2)N(C(=O)CC)n2c(CC)nnc2S1 | inconclusive: 15.8 µM [inhibitor, partial curve] | 
NC(=O)CC(NC(=O)c1ccccc1)c1ccc(N2CCCCCC2)c([N+](=O)[O-])c1 (centres undefined) | inconclusive: 44.7 µM [inhibitor, partial curve, poor fit] | 

(continued)

| Compound | Potency | activity change, negative = inhibition |
| --- | --- | --- |
| CCOC(=O)C1CCN(C(=O)c2ccc(NC(=O)c3nsc4ccccc34)cc2)CC1 | inconclusive: 8.91 µM [inhibitor, full curve, poor fit] |  |
| O=C(Nc1ccc(Cl)c(Cl)c1)Nc1ccc(N2CCCC2)c(S(=O)(=O)Nc2ccccc2Cl)c1 | inactive |  |
| O=C(CSc1nncc2ccccc12)Nc1ccccc1 | inactive |  |
| CCCc1ccc(OCCNC(=O)c2ccco2)cc1 | inconclusive: 79.4 µM [inhibitor, partial curve, poor fit] |  |
| CN1C(=O)/C(=C\c2ccc(N(C)C)cc2)OC1=S | inconclusive: 39.8 µM [inhibitor, single point] |  |
| Cc1ccc(S(=O)(=O)NCC(C)n2nc(C)cc2C)cc1 (centres undefined) | inactive |  |
| COc1ccc2nc3n(c(=O)c2c1)-c1ncccc1C(=O)NC3CC(C)C (centres undefined) | inconclusive: 0.251 µM [inhibitor, full curve, poor fit] |  |
| O=C(COC(=O)c1cccc(S(=O)(=O)N2CCN(c3ccc(F)cc3)CC2)c1)NCC1CCCO1 (centres undefined) | inactive |  |
| COc1cc(O)c2c(=O)c3c(OC)c(O)ccc3oc2c1 | inconclusive: 8.91 µM [inhibitor, partial curve] |  |
| COc1ccc2c(c1)Cc1sc(NC(=O)c3ccco3)nc1-2 | inconclusive: 25.1 µM [inhibitor, single point] |  |
| CCOc1ccc(Nc2cc(C)c3ccccc3n2)cc1 | inconclusive: 28.2 µM [inhibitor, partial curve] |  |
| CCOC(=O)Cn1cnc2c(cnn2-c2ccc(OC)cc2)c1=O | inactive |  |
| Cc1cc(Cl)ccc1OC(C)C(=O)NN1C(=O)c2ccccc2C1=O (centres undefined) | inconclusive: 6.31 µM [inhibitor, partial curve] |  |
| O=C(CCn1ccc2cc(S(=O)(=O)N3CCCC3)ccc21)NCc1cccc(Cl)c1 | inactive |  |
| COc1ccc(Cn2c(=O)c3[nH]cnc3n(-c3ccccc3C)c2=O)cc1 | inconclusive: 50.1 µM [inhibitor, partial curve, poor fit] |  |
| CC(Sc1nnc(-c2ccccc2)c(-c2ccccc2)n1)C(=O)Nc1ncc(Cl)cc1Cl (centres undefined) | inconclusive: 5.01 µM [inhibitor, single point] |  |
| COC(=O)c1c(N)sc(Cc2ccccc2)c1C | inactive |  |
| Cn1nccc1NC(=O)COCC(=O)O | inconclusive: 39.8 µM [inhibitor, partial curve, poor fit] |  |
| Cc1cc(N2CCOCC2)nc2ccc(NC(=S)N3CCN(c4ccccc4)CC3)cc12 | inconclusive: 28.2 µM [inhibitor, single point] |  |
| CCOc1ccccc1CNCc1c(C(=O)O)n(Cc2ccc(F)cc2)c2cc(C)ccc12 | inconclusive: 44.7 µM [inhibitor, partial curve, poor fit] |  |
| CCCCCOc1ccc(C(=O)Nc2ccc(S(=O)(=O)Nc3cc(C)on3)cc2)cc1 | inconclusive: 56.2 µM [inhibitor, single point] |  |
| CC1=C(C(=O)OC(C)C)C(c2cccs2)NC(=O)N1 (centres undefined) | inactive |  |
| CN(Cc1c(C(=O)N/N=C/c2ccc(O)cc2)nnn1-c1nonc1N)c1ccccc1 | inconclusive: 50.1 µM [inhibitor, partial curve, poor fit] |  |
